# Measurements: paper PMC9438028
# Columns and labels:
# [1] = target: V5 tagged LvRelish (Litopenaeus vannamei) (UniProt B1NA65); assay: co-IP; S2 cells co-expressing FLAG-LvIKKβ and V5-LvRelish with or without HA-LvSTING; LvIKKβ co-immunoprecipitated with V5-LvRelish; less LvIKKβ without LvSTING
# [2] = target: HA tagged LvSTING (Litopenaeus vannamei stimulator of interferon genes) (Litopenaeus vannamei); assay: co-IP; Drosophila S2 cells co-transfected with two plasmids (LvRelish-V5 or LvIKKβ-FLAG with LvSTING-HA or GFP-HA), lysed 48 h after transfection in IP lysis buffer; anti-HA or anti-V5 agarose affinity gel; western blot with anti-FLAG, anti-V5, anti-HA
binding [1],binding [2],Substance
binds,binds,FLAG-tagged LvIKKβ (from UniProt G5CJV9) (enzyme)
–,binds,V5 tagged LvRelish (from UniProt B1NA65)

# Results are given in words; binding and its absence hold for the method and conditions named. Binding seen in cells or lysates may run through a third protein. A result given as binding can be weak or reduced; the word gives no strength.
